Test results: the supplement of paper PMC3334620
The full ranking holds about 33,000 sequences; the median of “E-score (-0.5 to 0.5)” is about -0.016, and the highest 2% start at about 0.3. The list shows a part of the results.

target: T1, Yer184c (UniProt P39961); experiment: PBM E-score (8-mer binding enrichment) (E-score (-0.5 to 0.5)); higher = stronger / more preferred TF binding; conditions: protein concentration: 100 nM; construct: GST-full length
T1 sequence: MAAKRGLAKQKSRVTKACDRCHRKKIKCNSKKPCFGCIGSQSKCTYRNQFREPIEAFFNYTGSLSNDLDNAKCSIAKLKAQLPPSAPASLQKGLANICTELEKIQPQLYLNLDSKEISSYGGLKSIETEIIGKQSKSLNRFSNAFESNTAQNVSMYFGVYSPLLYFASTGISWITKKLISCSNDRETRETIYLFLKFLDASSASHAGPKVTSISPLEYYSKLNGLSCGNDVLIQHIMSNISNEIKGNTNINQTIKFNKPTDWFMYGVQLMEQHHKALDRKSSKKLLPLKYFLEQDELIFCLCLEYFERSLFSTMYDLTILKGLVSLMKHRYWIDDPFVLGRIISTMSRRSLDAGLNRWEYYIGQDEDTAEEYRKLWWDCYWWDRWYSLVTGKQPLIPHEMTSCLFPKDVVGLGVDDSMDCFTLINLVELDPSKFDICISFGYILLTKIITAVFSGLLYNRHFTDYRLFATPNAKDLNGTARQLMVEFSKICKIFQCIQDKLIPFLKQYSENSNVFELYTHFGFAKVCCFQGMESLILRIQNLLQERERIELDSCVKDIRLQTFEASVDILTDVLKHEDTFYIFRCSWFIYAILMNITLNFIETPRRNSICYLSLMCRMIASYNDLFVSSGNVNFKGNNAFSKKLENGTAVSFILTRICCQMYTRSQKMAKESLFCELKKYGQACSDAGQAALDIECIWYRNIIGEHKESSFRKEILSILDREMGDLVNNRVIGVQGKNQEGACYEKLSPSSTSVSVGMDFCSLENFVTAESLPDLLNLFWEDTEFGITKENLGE
How it was run: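 The E-score, a modified Wilcoxon-Mann-Whitney statistic, was computed by the Universal PBM Analysis Suite for every ungapped eight-base word pooled with its reverse complement. Scans behind it were normalised with masliner after bound GST-tagged yeast transcription factors were detected with fluorescent anti-GST. The proteins, at about 100-200 nM, had been applied to universal all-10-mer Agilent arrays made double-stranded by primer extension.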

Row | Sequence | PBM E-score
1 | CGGCTGAG | 0.0887
2 | CTCCCGAG | -0.0219
3 | CGAGTGCA | 0.166
4 | AGCTTATC | 0.0293
5 | CCTAGGCA | -0.163
6 | ACGTTAGC | 0.165
7 | ATGTACTG | -0.021
8 | CAGTAAAC | 0.0257
9 | CTCAGGTA | -0.0384
10 | ACGGCTCC | 0.189
11 | ATTAATAC | 0.21
12 | ACAACGAC | 0.104
13 | GAGGCCTC | 0.0359
14 | ATATTAAA | 0.368
15 | CTTTACGA | -0.0405
16 | CGGTACCA | 0.0778
17 | AAAAAGGA | 0.119
18 | TGTTAAAA | 0.173
19 | CCTGAAGC | -0.222
20 | ACGCAGGC | -0.0161
21 | AAGTCCTG | -0.108
22 | TAAGGTGA | -0.0772
23 | CGAAGTAG | 0.176
24 | ACCCACAG | -0.182

Random excerpt: three records from the list
Row | Sequence | PBM E-score
13 | GAGGCCTC | 0.0359
17 | AAAAAGGA | 0.119
16 | CGGTACCA | 0.0778

Following part

Row | Sequence | PBM E-score
25 | CGCGAATA | 0.0753
26 | CAGACGTC | -0.186
27 | CAGAAATC | 0.0538
28 | CCGTGAAC | 0.152
29 | CGATTTTA | 0.0349
30 | CAGCGGGA | -0.115
31 | AGAAAATC | 0.142
32 | ACGATTTC | 0.171
33 | AGATCGAT | -0.107
34 | ACACACCG | 0.0279
35 | AGTCTCTG | -0.11
36 | ATCAAGTC | -0.0287
37 | AAGAAAAC | 0.141
38 | ATATCGAA | 0.14
39 | ATACGGAC | 0.117
40 | ACGATCTC | 0.0383
41 | AAGGTTCT | -0.0394
42 | CTATGTCC | -0.0749
43 | CCTGGTTC | -0.0462
44 | CGTAATGC | -0.0392
45 | AATACCTA | 0.0562
46 | TCAAGAAA | 0.28
47 | AGAAGCAT | 0.0357
48 | AAAGCGAT | 0.06

Four consecutive records already listed:
Row | Sequence | PBM E-score
43 | CCTGGTTC | -0.0462
44 | CGTAATGC | -0.0392
45 | AATACCTA | 0.0562
46 | TCAAGAAA | 0.28

(cont.)

Row | Sequence | PBM E-score
49 | CGCTACAG | -0.0307
50 | ATGCTACC | 0.0246
51 | ATTCGATA | -0.00222
52 | GGAAAAAA | 0.304
53 | CAAGACGC | -0.00329
54 | CACCAAGG | -0.204
55 | GAGAAAAA | 0.188
56 | TCCGGTAA | 0.387
57 | GCCGCAAA | 0.239
58 | TATTAGAA | 0.173
59 | ACCCTAAA | 0.0527
60 | AGGAAAAA | 0.168
61 | CCCATGGG | -0.0805
62 | GTATACTA | -0.0915
63 | GCAGGTAC | -0.22
64 | ACCATGGG | -0.206
65 | ATTCTTGC | 0.225
66 | GCTCGGAC | 0.187
67 | CGTCTGCC | -0.0744
68 | GCCGGAAC | 0.403
69 | ACATTTCA | 0.146
70 | AATCCCGA | 0.246
71 | ATAATGCA | -0.0828
72 | ATAGTTCA | 0.189

Row | Sequence | PBM E-score
73 | ACACCCGG | 0.135
74 | AGTTGCAT | 0.105
75 | ACAGCAAA | 0.0742
76 | CGTGGAAA | 0.134
77 | AATATGGG | -0.215
78 | AGAGCATA | -0.077
79 | CGCAGCAC | -0.00665
80 | CTTGCTCA | -0.207
81 | ACATACAT | 0.14
82 | CGTTTAGA | -0.0269
83 | GAGCGCCA | -0.0646
84 | GTAGCAAC | -0.00751
85 | CACGTTGG | -0.214
86 | ACTCCATA | -0.308
87 | ATAGCCGC | 0.0602
88 | CGTCGACC | 0.0515
89 | ACGGCGCG | 0.232
90 | CACCGCAG | -0.166
91 | AACAGGCA | -0.15
92 | GTCACCCA | -0.184
93 | CTTACACA | -0.0671
94 | GTCCACAC | 0.0836
